The other results are listed elsewhere or left out. Small differences around the control level are noise.

Sequences of proteins named here, by UniProt entry; tags and fusion partners are left off. A change or cut given only in a name is not applied to a line headed by its entry.
UniProt Q8CI75: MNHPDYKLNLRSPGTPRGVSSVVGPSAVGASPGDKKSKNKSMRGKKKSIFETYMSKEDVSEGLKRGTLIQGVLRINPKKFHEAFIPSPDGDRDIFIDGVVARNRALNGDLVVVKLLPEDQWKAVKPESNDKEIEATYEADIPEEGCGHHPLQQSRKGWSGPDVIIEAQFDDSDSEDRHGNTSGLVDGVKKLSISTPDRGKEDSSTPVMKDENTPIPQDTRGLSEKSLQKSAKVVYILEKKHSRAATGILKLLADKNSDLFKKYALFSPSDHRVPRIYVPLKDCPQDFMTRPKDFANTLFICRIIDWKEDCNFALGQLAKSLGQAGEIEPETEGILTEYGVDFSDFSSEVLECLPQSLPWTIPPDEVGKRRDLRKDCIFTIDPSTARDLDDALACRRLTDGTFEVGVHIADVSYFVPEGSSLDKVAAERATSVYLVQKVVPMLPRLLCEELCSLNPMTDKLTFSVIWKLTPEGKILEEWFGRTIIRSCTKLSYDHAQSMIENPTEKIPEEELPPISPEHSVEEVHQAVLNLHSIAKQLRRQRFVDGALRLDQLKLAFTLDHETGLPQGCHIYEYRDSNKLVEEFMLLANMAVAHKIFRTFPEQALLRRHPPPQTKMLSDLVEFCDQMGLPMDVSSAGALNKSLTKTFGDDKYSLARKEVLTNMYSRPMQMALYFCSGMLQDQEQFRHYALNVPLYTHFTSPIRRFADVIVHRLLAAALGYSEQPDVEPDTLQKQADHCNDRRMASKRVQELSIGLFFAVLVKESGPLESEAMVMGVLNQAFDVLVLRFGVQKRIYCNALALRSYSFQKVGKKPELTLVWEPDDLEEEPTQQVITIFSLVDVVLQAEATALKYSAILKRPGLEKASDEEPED
UniProt Q8CHP6: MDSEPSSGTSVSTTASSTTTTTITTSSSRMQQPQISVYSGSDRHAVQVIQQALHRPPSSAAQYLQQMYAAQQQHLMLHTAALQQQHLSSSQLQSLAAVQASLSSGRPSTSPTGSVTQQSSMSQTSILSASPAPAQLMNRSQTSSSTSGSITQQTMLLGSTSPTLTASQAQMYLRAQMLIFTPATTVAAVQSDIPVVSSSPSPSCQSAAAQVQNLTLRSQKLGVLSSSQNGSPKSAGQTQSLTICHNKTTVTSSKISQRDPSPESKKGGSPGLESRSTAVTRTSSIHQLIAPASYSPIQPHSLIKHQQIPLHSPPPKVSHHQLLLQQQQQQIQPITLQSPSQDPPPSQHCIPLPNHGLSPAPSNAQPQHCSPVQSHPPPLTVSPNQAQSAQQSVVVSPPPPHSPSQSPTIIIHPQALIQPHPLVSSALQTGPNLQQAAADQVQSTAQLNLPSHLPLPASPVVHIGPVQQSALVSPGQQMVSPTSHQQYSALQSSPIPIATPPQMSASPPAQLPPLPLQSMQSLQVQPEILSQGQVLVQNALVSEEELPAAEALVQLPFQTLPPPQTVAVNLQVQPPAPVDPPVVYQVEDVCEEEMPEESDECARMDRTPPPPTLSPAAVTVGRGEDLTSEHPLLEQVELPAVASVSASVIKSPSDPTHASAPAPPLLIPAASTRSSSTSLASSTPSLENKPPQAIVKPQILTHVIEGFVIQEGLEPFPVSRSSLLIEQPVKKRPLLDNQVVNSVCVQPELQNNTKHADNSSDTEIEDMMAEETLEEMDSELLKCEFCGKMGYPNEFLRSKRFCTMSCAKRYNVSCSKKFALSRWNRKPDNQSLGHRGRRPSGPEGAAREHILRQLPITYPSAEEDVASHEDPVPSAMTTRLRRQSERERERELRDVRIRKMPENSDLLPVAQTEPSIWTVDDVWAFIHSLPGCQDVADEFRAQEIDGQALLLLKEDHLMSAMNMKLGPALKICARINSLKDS
UniProt Q8CI95: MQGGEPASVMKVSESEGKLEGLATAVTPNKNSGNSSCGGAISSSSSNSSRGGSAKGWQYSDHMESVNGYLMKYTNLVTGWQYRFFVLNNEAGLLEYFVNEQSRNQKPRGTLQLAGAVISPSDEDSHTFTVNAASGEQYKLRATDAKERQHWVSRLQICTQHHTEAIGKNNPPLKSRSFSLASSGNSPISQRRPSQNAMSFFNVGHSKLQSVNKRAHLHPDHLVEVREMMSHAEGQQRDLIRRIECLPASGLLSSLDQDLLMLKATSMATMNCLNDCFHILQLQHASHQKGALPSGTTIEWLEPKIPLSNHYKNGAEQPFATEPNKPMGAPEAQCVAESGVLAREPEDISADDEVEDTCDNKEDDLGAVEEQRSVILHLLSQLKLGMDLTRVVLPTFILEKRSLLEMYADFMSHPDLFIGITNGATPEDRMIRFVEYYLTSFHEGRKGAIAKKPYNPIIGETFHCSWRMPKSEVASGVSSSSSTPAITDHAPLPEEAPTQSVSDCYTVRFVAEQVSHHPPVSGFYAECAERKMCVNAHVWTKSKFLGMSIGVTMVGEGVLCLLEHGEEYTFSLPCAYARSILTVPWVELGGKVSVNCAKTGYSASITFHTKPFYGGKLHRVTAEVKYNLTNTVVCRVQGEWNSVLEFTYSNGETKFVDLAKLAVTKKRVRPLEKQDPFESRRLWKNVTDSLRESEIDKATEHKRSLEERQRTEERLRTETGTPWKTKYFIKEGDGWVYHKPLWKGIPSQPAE
UniProt Q8K0V2: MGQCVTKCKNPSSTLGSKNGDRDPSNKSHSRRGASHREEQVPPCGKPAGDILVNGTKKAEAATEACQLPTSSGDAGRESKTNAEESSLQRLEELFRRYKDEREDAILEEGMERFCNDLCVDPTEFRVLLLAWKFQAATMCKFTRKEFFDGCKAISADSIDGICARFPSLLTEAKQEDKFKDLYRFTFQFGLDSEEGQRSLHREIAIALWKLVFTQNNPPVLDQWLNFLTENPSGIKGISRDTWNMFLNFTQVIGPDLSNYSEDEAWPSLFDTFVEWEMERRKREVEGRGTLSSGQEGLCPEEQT
UniProt Q8JZL0: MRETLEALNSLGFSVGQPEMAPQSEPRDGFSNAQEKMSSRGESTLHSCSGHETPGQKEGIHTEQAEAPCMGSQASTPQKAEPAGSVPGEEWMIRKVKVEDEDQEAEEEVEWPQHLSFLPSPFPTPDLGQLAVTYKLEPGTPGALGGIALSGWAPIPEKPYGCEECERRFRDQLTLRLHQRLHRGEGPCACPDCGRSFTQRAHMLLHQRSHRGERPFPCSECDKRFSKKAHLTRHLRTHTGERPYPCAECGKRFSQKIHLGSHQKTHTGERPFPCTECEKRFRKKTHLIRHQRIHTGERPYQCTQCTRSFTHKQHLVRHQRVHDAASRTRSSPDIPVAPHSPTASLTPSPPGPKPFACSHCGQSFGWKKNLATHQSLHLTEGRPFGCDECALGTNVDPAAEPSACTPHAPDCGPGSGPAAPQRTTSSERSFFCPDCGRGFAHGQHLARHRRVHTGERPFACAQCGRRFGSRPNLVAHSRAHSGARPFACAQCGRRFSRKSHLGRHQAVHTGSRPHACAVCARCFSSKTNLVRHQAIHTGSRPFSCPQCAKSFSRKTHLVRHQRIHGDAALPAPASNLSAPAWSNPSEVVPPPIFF
UniProt Q8JZL3: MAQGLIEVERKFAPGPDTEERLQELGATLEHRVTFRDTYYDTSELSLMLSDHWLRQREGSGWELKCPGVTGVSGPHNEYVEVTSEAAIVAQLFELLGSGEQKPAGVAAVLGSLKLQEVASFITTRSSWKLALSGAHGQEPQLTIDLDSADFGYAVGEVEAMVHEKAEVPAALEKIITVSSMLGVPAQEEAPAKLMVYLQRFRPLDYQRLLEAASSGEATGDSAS
UniProt Q8CGA0: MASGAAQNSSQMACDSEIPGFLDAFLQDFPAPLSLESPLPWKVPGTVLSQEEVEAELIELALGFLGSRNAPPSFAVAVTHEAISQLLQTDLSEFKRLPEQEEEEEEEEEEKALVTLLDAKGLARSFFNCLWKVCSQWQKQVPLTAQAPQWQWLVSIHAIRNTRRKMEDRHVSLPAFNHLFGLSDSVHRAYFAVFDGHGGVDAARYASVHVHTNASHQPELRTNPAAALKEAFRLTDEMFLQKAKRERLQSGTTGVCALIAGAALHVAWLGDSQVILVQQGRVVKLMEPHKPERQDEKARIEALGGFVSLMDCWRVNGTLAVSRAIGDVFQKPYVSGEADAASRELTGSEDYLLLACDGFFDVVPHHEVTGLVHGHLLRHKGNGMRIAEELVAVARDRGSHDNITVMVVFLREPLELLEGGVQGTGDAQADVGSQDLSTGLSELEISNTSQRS
UniProt Q8CAY6: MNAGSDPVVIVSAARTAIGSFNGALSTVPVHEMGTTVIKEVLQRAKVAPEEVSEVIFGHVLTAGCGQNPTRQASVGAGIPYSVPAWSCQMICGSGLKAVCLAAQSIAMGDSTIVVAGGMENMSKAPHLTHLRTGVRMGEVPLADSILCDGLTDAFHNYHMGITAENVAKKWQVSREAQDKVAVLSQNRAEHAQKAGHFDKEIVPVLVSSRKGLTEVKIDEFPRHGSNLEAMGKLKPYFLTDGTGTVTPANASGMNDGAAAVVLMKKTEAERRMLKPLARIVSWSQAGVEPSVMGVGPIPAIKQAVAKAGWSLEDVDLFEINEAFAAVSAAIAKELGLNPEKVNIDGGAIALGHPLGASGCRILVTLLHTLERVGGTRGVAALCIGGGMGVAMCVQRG
UniProt Q8CBC4: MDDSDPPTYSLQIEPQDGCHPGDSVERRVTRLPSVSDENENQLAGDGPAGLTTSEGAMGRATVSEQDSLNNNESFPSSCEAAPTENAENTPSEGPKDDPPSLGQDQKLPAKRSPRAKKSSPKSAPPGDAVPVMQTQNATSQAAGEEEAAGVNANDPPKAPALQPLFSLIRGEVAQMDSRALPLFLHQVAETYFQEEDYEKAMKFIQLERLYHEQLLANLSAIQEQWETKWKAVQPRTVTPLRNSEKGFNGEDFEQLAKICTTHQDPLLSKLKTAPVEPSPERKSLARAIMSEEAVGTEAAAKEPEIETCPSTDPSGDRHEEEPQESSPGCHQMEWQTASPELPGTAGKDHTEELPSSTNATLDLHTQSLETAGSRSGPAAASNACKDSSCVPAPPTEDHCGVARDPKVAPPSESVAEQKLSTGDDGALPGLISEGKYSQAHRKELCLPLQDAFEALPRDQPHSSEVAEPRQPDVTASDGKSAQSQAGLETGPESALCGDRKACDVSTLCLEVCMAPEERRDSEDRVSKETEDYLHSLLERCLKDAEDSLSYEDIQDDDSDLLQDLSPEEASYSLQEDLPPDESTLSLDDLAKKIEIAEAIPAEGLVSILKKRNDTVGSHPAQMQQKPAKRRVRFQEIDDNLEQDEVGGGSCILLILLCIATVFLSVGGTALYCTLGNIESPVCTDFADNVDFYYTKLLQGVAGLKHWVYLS
UniProt Q8CD15: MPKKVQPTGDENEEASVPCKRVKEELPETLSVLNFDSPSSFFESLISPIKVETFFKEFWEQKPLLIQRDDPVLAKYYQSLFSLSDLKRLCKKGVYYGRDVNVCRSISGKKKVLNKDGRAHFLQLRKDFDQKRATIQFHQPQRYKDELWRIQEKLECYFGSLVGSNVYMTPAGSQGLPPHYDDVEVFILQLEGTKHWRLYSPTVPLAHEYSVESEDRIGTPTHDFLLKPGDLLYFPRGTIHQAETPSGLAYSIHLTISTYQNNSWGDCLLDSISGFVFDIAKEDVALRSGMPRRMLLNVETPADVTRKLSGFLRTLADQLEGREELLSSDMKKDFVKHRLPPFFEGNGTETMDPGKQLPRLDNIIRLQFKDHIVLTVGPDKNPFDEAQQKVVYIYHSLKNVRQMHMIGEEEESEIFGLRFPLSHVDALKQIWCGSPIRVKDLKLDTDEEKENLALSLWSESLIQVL
UniProt Q8CE33: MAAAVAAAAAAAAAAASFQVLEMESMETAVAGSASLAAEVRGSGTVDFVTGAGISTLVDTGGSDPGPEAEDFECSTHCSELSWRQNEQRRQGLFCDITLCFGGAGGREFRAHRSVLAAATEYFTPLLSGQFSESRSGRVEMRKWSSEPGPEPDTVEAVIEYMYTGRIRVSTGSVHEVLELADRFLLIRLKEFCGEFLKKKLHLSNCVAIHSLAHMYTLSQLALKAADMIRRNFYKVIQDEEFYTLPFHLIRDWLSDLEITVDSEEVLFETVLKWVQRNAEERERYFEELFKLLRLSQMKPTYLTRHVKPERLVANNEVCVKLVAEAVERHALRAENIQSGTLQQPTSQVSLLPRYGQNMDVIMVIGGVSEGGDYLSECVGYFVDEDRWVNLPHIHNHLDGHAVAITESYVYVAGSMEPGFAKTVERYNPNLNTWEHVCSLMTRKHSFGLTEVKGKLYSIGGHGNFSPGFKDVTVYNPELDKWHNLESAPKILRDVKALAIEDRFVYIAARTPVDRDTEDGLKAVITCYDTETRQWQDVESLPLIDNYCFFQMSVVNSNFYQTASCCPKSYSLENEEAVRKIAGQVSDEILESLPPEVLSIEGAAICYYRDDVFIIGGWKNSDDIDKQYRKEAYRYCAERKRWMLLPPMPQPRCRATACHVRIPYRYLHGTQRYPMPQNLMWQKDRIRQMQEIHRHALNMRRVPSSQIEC

Compound in the assay: CN[C@@H]1C[C@H]2O[C@@](C)([C@@H]1OC)n1c3ccccc3c3c4c(c5c6ccccc6n2c5c31)C(=O)NC4 [staurosporine]
As to the kind of experiment: log2 fold change of tryptic peptide abundance, ligand vs vehicle (limited proteolysis) (log2 ratio); higher = more trypsin-susceptible (destabilized). The following applies: ligand concentration: 20 uM; sample: mouse liver crude lysate; replicate design: treated separately.
On to “UniProt Q8CE22 (peptide sequence: YTPEEIEKLK, peptide start residue: 227)”, for which the log2 fold change came to 0.6. “UniProt Q8CI75 (peptide sequence: TFGDDKYSLAR, peptide start residue: 645)”: the log2 fold change was determined as 0.41.

On to “UniProt Q8CHP6 (peptide sequence: FCTMSCAK, peptide start residue: 801)”, for which the log2 fold change came out at 0.405. Take “UniProt Q8CI95 (peptide sequence: VVLPTFILEKR, peptide start residue: 391)”: the log2 fold change turned out to be 0.192. The same measure for “UniProt Q8K072 (peptide sequence: SYETMLSFGKR, peptide start residue: 114)”: 0.442. With “UniProt Q8K0F1 (peptide sequence: NIIQGRPLPAELR, peptide start residue: 38)”, the log2 fold change is -0.379.

As to “UniProt Q8CFE4 (peptide sequence: QPQQRPTDMSALNNLFGPQKPK, peptide start residue: 829)”, the log2 fold change is -0.153. The same measure for “UniProt Q8K0V2 (peptide sequence: KAEAATEACQLPTSSGDAGR, peptide start residue: 58)”: -0.0838; for “UniProt Q8K0D5 (peptide sequence: IATMHEVK, peptide start residue: 74)”: -0.289. The same measure for “UniProt Q8JZL0 (peptide sequence: GESTLHSCSGHETPGQK, peptide start residue: 41)”: 0.218; for “UniProt Q8JZL3 (peptide sequence: AQGLIEVERK, peptide start residue: 2)”: 0.192; for “UniProt Q8CGA0 (peptide sequence: ALVTLLDAK, peptide start residue: 112)”: 0.552. As for “UniProt Q8CAY6 (peptide sequence: VAVLSQNR, peptide start residue: 181)”, the figure is -0.107; as for “UniProt Q8CFW7 (peptide sequence: AHHEDQEGEEGTQAQER, peptide start residue: 219)”, -0.473.

“UniProt Q8CBC4 (peptide sequence: GEVAQMDSR, peptide start residue: 171)”: the log2 fold change turned out to be 0.289. The same measure for “UniProt Q8CE64 (peptide sequence: SISDRVPGETSER, peptide start residue: 94)”: -0.116; for “UniProt Q8CDM8 (peptide sequence: QPLLPHINVHRPVQK, peptide start residue: 120)”: 0.206. The same measure for “UniProt Q8CDJ3 (peptide sequence: KLCNSEFCGENLSK, peptide start residue: 328)”: -0.201; for “UniProt Q8CD15 (peptide sequence: AHFLQLR, peptide start residue: 119)”: 0.455. The same measure for “UniProt Q8CE33 (peptide sequence: LVANNEVCVK, peptide start residue: 312)”: 0.163; for “UniProt Q8CJ12 (peptide sequence: RYLCCGKLR, peptide start residue: 884)”: -0.0908; for “UniProt Q8CBY3 (peptide sequence: CFTACESEEDKDRTEK, peptide start residue: 301)”: -0.153. As to “UniProt Q8CHW4 (peptide sequence: VAAGAQIHQSLLCDRAEVK, peptide start residue: 398)”, the log2 fold change was -0.301. Regarding “UniProt Q8CCK0 (peptide sequence: AGVIFPVGR, peptide start residue: 19)”, the log2 fold change worked out at 0.159. As for “UniProt Q8CJH3 (peptide sequence: ENQDYVPGER, peptide start residue: 1844)”, the figure is -0.262.

For the origin of these results see the supplement of paper PMC12819154, “High-throughput peptide-centric local stability assay extends protein–ligand identification to membrane proteins, tissues and bacteria” (Nature Structural & Molecular Biology, 2025).
